Data taken from patent US7427485B2, “Method for classification of anti-psychotic drugs” (The Rockefeller University, priority 2001, dated 2008).
For at least one compound, name, drawing or mass did not settle the structure.

Columns and labels:
Thr185- and Tyr187- ERK2 = assay: In vivo phosphorylation of ERK2 in mouse striatum (immunoblot, phosphorylation state-specific antibodies); set-up: species or system mice; details: clozapine 5.0 mg/kg, at 15, 30 and 60 minutes
Description: (§1) Male C57/BL6 mice (groups of six) were administered intraperitoneal injections of one of three anti-psychotic compounds, haloperidol (a typical anti-psychotic), clozapine (an atypical anti-psychotic), or eticlopride (a selective dopamine D2 receptor antagonist). All animals were sacrificed by decapitation at 15, 30, or 60 minutes post-injection. After decapitation, the heads were immediately immersed in liquid nitrogen for 6 seconds to inactivate all protein activity. The brains were then dissected on an ice-cold surface and the striata removed and sonicated in 750 μl of 1% SDS, and then boiled for 10 minutes. Levels of phosphorylated DARPP-32, CREB, and ERK1 and ERK2 were then determined.
(§2) In order to determine levels of phosphoproteins in brain tissue, aliquots of the brain homogenate were loaded onto 10% polyacrylamide gels and the proteins separated by SDS/PAGE analysis, and then transferred to poly(vinylidene difluoride) membranes as described by Towbin and colleagues (Towbin, H. et al. 1979. Proc. Natl. Acad. Sci. USA 76:4350-4354). The effect of the drugs on the phosphorylation of DARPP-32 at two sites (Thr34 and Thr75), ERK1 at two sites (Thr202 and Tyr204), ERK2 at two sites (Thr185 and Tyr187), and CREB at one site (Ser133) was assessed using phosphorylation state-specific antibodies according to standard methods. […]

Ser133-CREB = assay: In vivo phosphorylation of CREB in mouse striatum (immunoblot, phosphorylation state-specific antibodies); set-up: species or system mice; details: clozapine 5.0 mg/kg, at 15, 30 and 60 minutes
Description: as §1, §2

c-fos [1] = details: dorsal striatum; cited from earlier work
c-fos [2] = details: medial prefrontal cortex; cited from earlier work
DOI-induced behaviors = details: rats; 30 min pretreatment i.p.; fixed dose of DOI 3.0 mg/kg; cited from earlier work
Thr202- and Tyr204- ERK1 = assay: In vivo phosphorylation of ERK1 in mouse striatum (immunoblot, phosphorylation state-specific antibodies); details: at 60 minutes after administration
Thr75-DARPP-32 = assay: In vivo phosphorylation of DARPP-32 at Thr75 in mouse striatum (immunoblot, phosphorylation state-specific antibodies); details: at 15, 30 and 60 minutes
DARPP-32 = details: chronic administration in rats; cited from earlier work

SMILES | levels of phospho-ERK2 (in words) (Thr185- and Tyr187- ERK2) | levels of phospho-CREB (in words) (Ser133-CREB) | c-fos inductive activity (c-fos [1]) | c-fos expression (c-fos [2]) | effect on the three behavioral effects of DOI (head-and-body shakes, forepaw tapping, skin-jerks) (DOI-induced behaviors) | levels of phospho-ERK1 (in words) (Thr202- and Tyr204- ERK1) | phosphorylation at the Thr-75 site of DARPP-32 (in words) (Thr75-DARPP-32) | frontal cortex levels of DARPP-32 immunoreactivity (DARPP-32)
CN1CCN(C2=Nc3cc(Cl)ccc3Nc3ccccc32)CC1 [Clozapine, clozapine] | rapid decrease | rapid decrease | weak | strongly induces | antagonize | decreased | significantly increased | 
[Li] [lithium] |  |  |  |  |  |  |  | significant increases
